According to PubChem BioAssay AID1347423 (Functional Genomics Laboratory (NCATS/FGL), 2020):
Hit rate of the full screen: of about 52,000 sequences, about 210 (0.4%) were called active.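 Rule for the calls: active = gene whose silencing raises cell survival under the drug, median off-target-corrected z-score across its silencing RNAs 2 or more; inactive = the rest.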 The list shows a part of the results.

Experiment: Resistance to Poly (ADP-Ribose) Polymerase inhibitor: Gene Identification via Genome-wide siRNA Screen
Conditions: mouse BRCA2 R2336H ES cells, olaparib, CellTiter-Glo viability; active compounds read high
Method in brief: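 Genome-wide siRNA screen (3 siRNAs/gene, 20 nM) in mouse ES cells carrying hypomorphic BRCA2 R2336H; olaparib 500 nM added 48 h post-transfection, CellTiter-Glo viability 72 h later. Normalized to plate-median negative control; MAD z-scores, gene median, seed-adjusted.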
For GCAGCGAUGUACAAUCCAATT against Opn5, the z-score was inactive: 1.04. For GGAUGAAGAUACGAUUGAUTT against Sumo2, the z-score was inactive: -1.5. For GGUUCAGUCAGUCAGUAUCTT against Srst, the z-score was inactive: -0.639. With GGCUGUGGAUCUCCUAUCATT against Ibrdc2 the z-score was inactive: -0.338. In the case of GCAAGUGCCUAGAGUCUCATT against Crat, the z-score is reported as inactive: -0.969. For GGAAGUCUCUUAGACUACCTT against Fbxo36, the z-score was inactive: -0.143. With CCUGCUCUAGAGAAGAAGUTT against Apoa1bp the z-score was inactive: -1.27. In the case of GCUGAAAACUGCUUGCUCCTT against Onecut3, the z-score is reported as inactive: 0.229. For “GGCGACAUGUACAAUGACUTT against 0610012D09Rik”, the z-score was inactive: 0.674. For “GGAUAUCUAAUGUUAGAAGTT against E130304F04Rik”, the z-score was inactive: -0.4. In the case of “GGAUUCUUACCCAACUUUUTT against C330046L10Rik”, the z-score is reported as inactive: 0.653. In the case of GGAAAAAUAGCAUACCGAATT against Bphl, the z-score is reported as inactive: 0.313. For GGCGAUCUUUGGAAUUAGATT against Ing3, the z-score was inactive: 1.17. With CGGGACAUUAGUCAUUAAATT against Pcdha5 the z-score was inactive: 1.55. For GCCGAAGAGAUCAACACCATT against Onecut3, the z-score was inactive: -0.28. With GGGUUAAAGCGGUUUACUUTT against Kcng3 the z-score was inactive: 0.348. In the case of GGUCUACAUUGAUCCUUUUTT against Ephb4, the z-score is reported as inactive: 0.0136. In the case of GGAAUCUGAAUUUUUGUGUTT against Commd1, the z-score is reported as inactive: 0.407. For GCCGUUUUACAAAAGCUUUTT against Ches1, the z-score was inactive: -0.0824. For GCUUAGAAAUGUGAUCCAUTT against Rex2, the z-score was inactive: 0.656. For GGCUUCUUCUUCCUUUUUATT against Sra1, the z-score was inactive: 1.5. With GGGAAUGUCUGACUUCCAGTT against Gtf3c5 the z-score was inactive: -2.58. For CCCAUUUAGACUAGUUUAATT against Hsf2, the z-score was inactive: -0.171. With GGAUGUUCAGCAAUCCCUGTT against Rnf121 the z-score was inactive: 0.6. With “GCUUGACUUGGUAUGUUUATT against 9030624L02Rik” the z-score was inactive: 1.31. In the case of GGGCUUCAUAAUCACCUUCTT against Rad51c, the z-score is reported as inactive: -1.74. With “GCGAUCCUCUCUACUUAACTT against 6430537H07Rik” the z-score was inactive: 0.432. With GGGAAACAGACUUUUUUUATT against Arid3a the z-score was inactive: 0.697. With “GGAACUGGAAUCAAGACCATT against 1200011M11Rik” the z-score was inactive: 1.16. For GCGGGACUCAAACAAAAGUTT against Trip4, the z-score was inactive: -0.208. For “GCCAAGAGGACUUACUCUCTT against A530081L18Rik”, the z-score was inactive: -0.639. In the case of “GGAGGCUUAUCCUAAAAAGTT against 6330444E15Rik”, the z-score is reported as inactive: 0.256. For GGCAUGGAAGGCUUUAAUUTT against Gad1, the z-score was inactive: 0.393. In the case of GGAAGAAUGAAGAAGUAAUTT against Cacng3, the z-score is reported as inactive: 0.0762. In the case of GGGCCUAGACCGUAUCUUCTT against Kcnj12, the z-score is reported as inactive: 0.13. For “GGAAAGCUUGGACAUUAAGTT against B130003F20Rik”, the z-score was inactive: 0.0915. In the case of GGGAUUUGGUCAGCUAACCTT against Acp2, the z-score is reported as inactive: 2.58. In the case of GAAAACUCAAACAGCAUAUTT against V1ri10, the z-score is reported as inactive: -0.036. In the case of “GCUAGUUCUCAUCAGCUACTT against 8030463A06Rik”, the z-score is reported as inactive: 1.92. For GGUUAAUAUUAGCAUCGUCTT against Gm779, the z-score was inactive: 0.219. In the case of GGUUUUCAAUGGAGAAGGATT against Zfpn1a2, the z-score is reported as inactive: -1.29. With “GGGAAUCUAAAUUAUUCUGTT against 1200003O06Rik” the z-score was inactive: 2.08. In the case of GGAGAAAUAUGACAUGGAGTT against Tnni2, the z-score is reported as inactive: -0.218. In the case of GGAACUCCAUCUUCUGUAATT against Olfr1491, the z-score is reported as inactive: -0.157. For GCCGCAUUGAGUACAUGGUTT against Ap1m1, the z-score was inactive: 0.652. With GCGGCAUUGUCUACAUCCATT against Emp3 the z-score was inactive: -0.685. For GGGUAACAGUGGUGAACCUTT against Col1a1, the z-score was inactive: -1.52. With “CCUGUAUUAAACAGGGUUCTT against 6330516O17Rik” the z-score was inactive: -2.06. With GCUUAAGAGAUUCAAAUUGTT against Olfr1317 the z-score was inactive: 0.0599. With GGCCAGUACGAAUGCUCCUTT against Dlk1 the z-score was inactive: -1.78. With GCAAUAAUGGCAAGAAUGGTT against AJ430384 the z-score was inactive: -1.27. In the case of “GGCGGAUUCAACAGACCUCTT against 2610209M04Rik”, the z-score is reported as inactive: -1.92. For GGGUAUGACCGGUAUUACATT against Atp5j2, the z-score was inactive: 0.11. With CCGAUUAAAAGAGUGUUUGTT against Nudt8 the z-score was inactive: 0.145. With “GGUGGAUGGAUCACUGAGUTT against B230325K18Rik” the z-score was inactive: -1.37. In the case of GGACCUUGGCUUUAAGAUGTT against Matn1, the z-score is reported as inactive: 0.749. For GGUGGUAUUCUGUGGACCATT against Mrpl48, the z-score was inactive: -0.927. For GGUGGUGUUUCUGAACCCATT against Capn5, the z-score was inactive: -0.00609. For GCAAACUGCCCUCUUUGUGTT against Olfr1024, the z-score was inactive: -1.46. For CCGACUGUUAAAGUGGUGUTT against Arih1, the z-score was inactive: -0.239. For “GGAAAUGCUACUGCUUGGATT against 1700030K09Rik”, the z-score was inactive: -1.79. In the case of GCUGAUACACAGACAUACCTT against Erh, the z-score is reported as inactive: -2.28. With “GGAAGGUGAUGAAUCAGCCTT against 2310058J06Rik” the z-score was inactive: 0.591. In the case of GGGACUUUAAAAAAGACUCTT against Olfr1366, the z-score is reported as inactive: 0.203. For GGUCUUCGCCACAUGGAAATT against Crkl, the z-score was inactive: 1.02. With GGCUCUUGUUGAUUGGGCUTT against Thsd6 the z-score was inactive: -0.175.
